Experimental findings from US20110311508A1 (NORTHWESTERN UNIVERSITY, published 2011) are described below.

Results are given in words; binding and its absence hold for the method and conditions named. Some results given as binding are weak or reduced against the parent protein; the word gives no strength. Tags and fused reporters may be left off the sequences shown.

The experiment addresses T1, Myc-HSF1 (hHSF1-Myc, wild-type human HSF1 with a Myc tag) (human), Q00613.
T1 chain: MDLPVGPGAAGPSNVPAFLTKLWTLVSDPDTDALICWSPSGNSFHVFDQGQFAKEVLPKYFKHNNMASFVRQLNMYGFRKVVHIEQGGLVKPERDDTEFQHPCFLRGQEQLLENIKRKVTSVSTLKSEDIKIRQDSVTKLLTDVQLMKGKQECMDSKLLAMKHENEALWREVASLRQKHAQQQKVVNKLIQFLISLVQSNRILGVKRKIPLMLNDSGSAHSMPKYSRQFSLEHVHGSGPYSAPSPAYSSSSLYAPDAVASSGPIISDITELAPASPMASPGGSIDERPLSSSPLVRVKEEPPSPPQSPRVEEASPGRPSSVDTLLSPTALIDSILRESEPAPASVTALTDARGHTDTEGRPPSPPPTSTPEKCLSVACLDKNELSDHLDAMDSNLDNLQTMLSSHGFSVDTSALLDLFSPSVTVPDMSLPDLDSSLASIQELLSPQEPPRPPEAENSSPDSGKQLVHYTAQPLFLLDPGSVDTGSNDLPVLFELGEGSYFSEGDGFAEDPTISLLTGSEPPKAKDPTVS
Description: self-association (trimerization); EGS crosslinking of K562 cell extracts, SDS-PAGE, western blot. To be noted: remark: other sources report otherwise.

B1: Myc-HSF1 (hHSF1-Myc, wild-type human HSF1 with a Myc tag), Q00613 1-529 (protein, not shown: small tags and cut ends)
chain: MDLPVGPGAAGPSNVPAFLTKLWTLVSDPDTDALICWSPSGNSFHVFDQGQFAKEVLPKYFKHNNMASFVRQLNMYGFRKVVHIEQGGLVKPERDDTEFQHPCFLRGQEQLLENIKRKVTSVSTLKSEDIKIRQDSVTKLLTDVQLMKGKQECMDSKLLAMKHENEALWREVASLRQKHAQQQKVVNKLIQFLISLVQSNRILGVKRKIPLMLNDSGSAHSMPKYSRQFSLEHVHGSGPYSAPSPAYSSSSLYAPDAVASSGPIISDITELAPASPMASPGGSIDERPLSSSPLVRVKEEPPSPPQSPRVEEASPGRPSSVDTLLSPTALIDSILRESEPAPASVTALTDARGHTDTEGRPPSPPPTSTPEKCLSVACLDKNELSDHLDAMDSNLDNLQTMLSSHGFSVDTSALLDLFSPSVTVPDMSLPDLDSSLASIQELLSPQEPPRPPEAENSSPDSGKQLVHYTAQPLFLLDPGSVDTGSNDLPVLFELGEGSYFSEGDGFAEDPTISLLTGSEPPKAKDPTVS
For the molecule B1, the binding result was “binds”.
